Measured values reported in PubChem BioAssay AID1487 (National Center for Advancing Translational Sciences (NCATS), 2009).
Values joined by “and” are separate entries in the source; they are usually repeats but may differ in a detail not shown here. Identical values can stand only once. This is one part of the list. The main result of the screen is listed elsewhere. These columns were measured beside it and carry no call. The list favours compounds with an active or inconclusive main result. The note in brackets gives the kind of curve behind each potency; many fits are weak.

Test: qHTS Assay for Modulators of Lamin A Splicing
Conditions: HeLa LMNA splicing GFP/RFP minigene ratio, 48 h
Procedure, shortened: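 S3 HeLa cells stably expressing lamin A-EGFP splicing minigene plus DsRed2, 600 cells/well, 48 h compound exposure at 37C. Laser-scanning cytometry; analysed as GFP (500-530 nm)/RFP (575-640 nm) total intensity ratio; 0.5% DMSO vehicle.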

[1] = measured here: RFP viability control channel
[2] = measured here: GFP splicing reporter channel

Compound	AC50 [1]	AC50 [2]
Cn1c(COc2ccc(Cl)cc2)nnc1SCc1ncc(-c2ccccc2)o1	12.6 µM [rising, partial curve]	–
CC(=O)N1CCN(S(=O)(=O)c2cccc(C(=O)Nc3ccc4c(c3)CCC4)c2)CC1	17.8 µM [rising, partial curve, poor fit]	–
CC(=O)N1CCCc2cc(S(=O)(=O)N3CCCC(C(=O)NCc4ccccc4)C3)ccc21 (centres undefined)	0.0282 µM [falling, full curve, poor fit]	–
C/C(=N\NC(=O)c1ccccc1O)C1C(=O)c2ccccc2C1=O	35.5 µM [falling, single point]	35.5 µM [falling, single point]
COc1ccc(C(=O)NNC(=O)CN2CCC(n3nnc4cc(F)ccc43)CC2)cc1	22.4 µM [rising, single point]	–
O=c1c(CCc2ccccc2)nc2cnc(Oc3ccccc3)nc2n1C1CC1	–	22.4 µM [falling, single point]
COc1cc(OC)c(NC(=O)CC(C)=O)cc1Cl	–	6.31 µM [falling, single point]
COC(=O)c1ccc(NC(=O)N2CCC(CN3CCc4ccccc4C3)CC2)cc1	0.02 µM [falling, full curve, poor fit]	0.02 µM [falling, full curve, poor fit]
O=C(N/N=C/C(Br)=C/c1ccccc1)c1n[nH]c2c1CCC2	0.501 µM [rising, full curve]	35.5 µM [falling, single point]
CC(Sc1nnc(Nc2ccccc2)s1)C(=O)NC1CCCc2ccccc21 (centres undefined)	31.6 µM [rising, single point]	–
CC(=O)Oc1ccc(C(c2ccc(OC(C)=O)cc2)c2ccccn2)cc1	14.1 µM [falling, single point] and 1.41 µM [falling, partial curve, poor fit] and 10 µM [rising, partial curve]	794 nM [falling, partial curve, poor fit] and 12.6 nM [falling, full curve, poor fit] and 10 µM [rising, single point]
CC(=O)c1c(C(C)=O)c(C)n(C(c2ccccc2)c2ccccc2)c1C	14.1 µM [falling, partial curve, poor fit]	–
CC1=C(C(=O)Nc2ccc(C)cc2C)C(c2ccccc2F)n2nc(SCC(=O)c3ccc(C)cc3)nc2N1 (centres undefined)	17.8 µM [falling, partial curve, poor fit]	–
Oc1ccc(/C=N\Nc2cc(N3CCOCC3)nc(N3CCOCC3)n2)c(O)c1	20 µM [rising, partial curve]	–
CSc1nc(C)cc(OCCNS(=O)(=O)c2cc(C)ccc2C)n1	20 µM [rising, single point]	15.8 µM [rising, single point]
CCCCCCN=CC1=C(O)CC(C)(C)CC1=O	–	14.1 µM [rising, single point]
CCC(=O)N(CCC(Cc1ccccc1)c1ccc2c(c1)OCO2)Cc1ccccc1F (centres undefined)	17.8 µM [falling, partial curve, poor fit]	–
COc1cccc2c(=O)c3cccc(N)c3[nH]c12	15.8 µM [rising, partial curve, poor fit]	12.6 µM [rising, partial curve, poor fit]
C=CCn1c(Cc2cccs2)nnc1SCC(=O)Nc1cc(OC)cc(OC)c1	17.8 µM [rising, partial curve]	5.01 µM [rising, partial curve, poor fit]
CCOc1ccccc1N(CC(=O)NCCSc1ccccc1)S(C)(=O)=O	5.01 µM [rising, single point]	35.5 µM [rising, partial curve, poor fit]
CCN(CC)CCNCc1cc(Cl)ccc1OCc1ccccc1F	4.47 µM [falling, partial curve]	12.6 µM [falling, single point]
S=C(NCc1cccs1)Nc1ccccc1Cl	35.5 µM [rising, single point]	20 µM [rising, single point]
c1ccc(-c2ncc3c(ccc4ccccc43)n2)cc1	20 µM [rising, partial curve, poor fit]	–
Cc1oc(C)c2c(=O)ccc3c(c12)OC(N)=C(C#N)C3c1ccc(F)cc1 (centres undefined)	1.12 µM [falling, partial curve, poor fit]	–
O=C1/C(=C/c2c[nH]c3ccccc23)CCC/C1=C\c1c[nH]c2ccccc12	35.5 µM [falling, single point]	35.5 µM [falling, single point]
O=C(OCc1cncs1)c1cccs1	–	5.62 µM [falling, single point]

Compound	AC50 [1]	AC50 [2]
c1coc(CN2CN=C(Nc3nc4ccccc4s3)NC2)c1	22.4 µM [rising, partial curve, poor fit]	–
O=C(Nc1ccc(Br)cc1)c1cccc(N2C(=O)C3C4CCC(C4)C3C2=O)c1 (centres undefined)	15.8 µM [rising, partial curve]	5.01 µM [rising, partial curve]
Cc1ccc(C(=O)COc2cccc(NC(=O)c3ccco3)c2)cc1	12.6 µM [rising, single point]	–
CN(C)/C=C/C(=O)c1ccc(Oc2ccccc2)cc1	–	0.00447 µM [falling, full curve, poor fit]
COCCCNC(=S)N/N=C/c1cccc(OC)c1O	0.1 µM [falling, full curve]	0.0708 µM [falling, full curve]
CNS(=O)(=O)c1cccc(C(=O)OCC(=O)/C=C2/N(C)c3ccccc3C2(C)C)c1	11.2 µM [rising, partial curve]	4.47 µM [rising, partial curve]
COc1ccc(CNC(=O)C(c2ccco2)N(Cc2ccccc2)C(=O)Cc2cccs2)cc1 (centres undefined)	31.6 µM [rising, single point]	35.5 µM [rising, single point]
COc1cccc(CN(Cc2ccco2)S(=O)(=O)c2ccc(S(=O)(=O)NCc3ccccc3)cc2)c1OC	11.2 µM [rising, partial curve]	10 µM [rising, single point]
C/C(=N\Nc1ccc(Cl)c(Cl)c1)c1ccc(-n2ccnc2)cc1	35.5 µM [rising, partial curve]	35.5 µM [rising, single point]
CCCCNC(=O)C(CC)Sc1nc2ccccc2c(=O)n1CCc1ccc(OC)c(OC)c1 (centres undefined)	22.4 µM [falling, partial curve, poor fit]	–
COc1ccc(C(=O)CC2OC(=O)c3ccccc32)cc1OC (centres undefined)	31.6 µM [rising, single point]	–
Cc1ccc(O)c(C(=O)c2cc(C(=O)NCCc3ccccc3)c(=O)n(CCc3ccccc3)c2)c1	11.2 µM [rising, partial curve, poor fit]	–
CCOC(=O)C1=C(C)N(C)C(=S)NC1c1ccc(Cl)cc1 (centres undefined)	35.5 µM [rising, single point]	–
CC(C)(C)c1cc(CCC(=O)NNC(=S)NC(=O)c2ccccc2)cc(C(C)(C)C)c1O	4.47 µM [rising, full curve, poor fit]	–
Clc1ccccc1-c1nc(NCc2cccs2)c2ccccc2n1	31.6 µM [falling, single point]	17.8 µM [falling, partial curve, poor fit]
Cc1ccc(-n2c(C)cc(/C=C3\NC(=O)NC3=O)c2C)c(C)c1	35.5 µM [rising, single point]	–
Cc1cc(N2CCCC2=O)cc(C)c1S(=O)(=O)NCCOc1ccccc1	28.2 µM [rising, single point]	35.5 µM [rising, single point]
CCS(=O)(=O)c1ccc2oc(SCC(=O)NC(C)C3CC4CCC3C4)nc2c1 (centres undefined)	35.5 µM [rising, single point]	–
COc1cc(-c2cc(OC)c3c(C)oc(C)c3c(=O)c2)ccc1OC(=O)c1cccc(Cl)c1	–	20 µM [falling, partial curve, poor fit]
Cc1ccccc1C(=O)Nc1cccc(NC(=O)Cn2cnc3c(=O)n(C)c(=O)n(C)c32)c1	–	15.8 µM [falling, single point]
Oc1c(Cl)cccc1C=Nc1cc(C(F)(F)F)ccc1N1CCCC1	10 µM [rising, single point]	–
COc1ccc(N2CCN(c3csc4ccccc4c3=O)CC2)cc1	–	7.94 µM [rising, partial curve, poor fit]
O=C(c1cccs1)N(Cc1cc2ccccc2[nH]c1=O)c1ccccc1	14.1 µM [rising, partial curve]	11.2 µM [rising, single point]
CCOC(=O)c1c(NC(=O)C(=O)N/N=C/c2ccc(O)c(OC)c2)sc2c1CCCCC2	22.4 µM [rising, single point]	14.1 µM [rising, single point]
OCCCc1cn(-c2ccccc2)c2ccccc12	–	0.0224 µM [rising, full curve, poor fit]
Cn1nccc1C(=O)NCc1ccc2c(c1)CCN2C(=O)c1ccc(Cl)cc1	8.91 µM [falling, partial curve, poor fit]	10 µM [falling, partial curve, poor fit]
